We go through one substance from PMC3315461.

Results are given in words; binding and its absence hold for the method and conditions named. In cells and extracts the contact can be indirect. A result given as binding can be weak or reduced; the word gives no strength. Tags and fused reporters may be left off the sequences shown.

The assay deals with T1, FLAG-tagged full-length Treacle (mouse Tcof1) (mouse) (UniProt O08784).
T1 sequence: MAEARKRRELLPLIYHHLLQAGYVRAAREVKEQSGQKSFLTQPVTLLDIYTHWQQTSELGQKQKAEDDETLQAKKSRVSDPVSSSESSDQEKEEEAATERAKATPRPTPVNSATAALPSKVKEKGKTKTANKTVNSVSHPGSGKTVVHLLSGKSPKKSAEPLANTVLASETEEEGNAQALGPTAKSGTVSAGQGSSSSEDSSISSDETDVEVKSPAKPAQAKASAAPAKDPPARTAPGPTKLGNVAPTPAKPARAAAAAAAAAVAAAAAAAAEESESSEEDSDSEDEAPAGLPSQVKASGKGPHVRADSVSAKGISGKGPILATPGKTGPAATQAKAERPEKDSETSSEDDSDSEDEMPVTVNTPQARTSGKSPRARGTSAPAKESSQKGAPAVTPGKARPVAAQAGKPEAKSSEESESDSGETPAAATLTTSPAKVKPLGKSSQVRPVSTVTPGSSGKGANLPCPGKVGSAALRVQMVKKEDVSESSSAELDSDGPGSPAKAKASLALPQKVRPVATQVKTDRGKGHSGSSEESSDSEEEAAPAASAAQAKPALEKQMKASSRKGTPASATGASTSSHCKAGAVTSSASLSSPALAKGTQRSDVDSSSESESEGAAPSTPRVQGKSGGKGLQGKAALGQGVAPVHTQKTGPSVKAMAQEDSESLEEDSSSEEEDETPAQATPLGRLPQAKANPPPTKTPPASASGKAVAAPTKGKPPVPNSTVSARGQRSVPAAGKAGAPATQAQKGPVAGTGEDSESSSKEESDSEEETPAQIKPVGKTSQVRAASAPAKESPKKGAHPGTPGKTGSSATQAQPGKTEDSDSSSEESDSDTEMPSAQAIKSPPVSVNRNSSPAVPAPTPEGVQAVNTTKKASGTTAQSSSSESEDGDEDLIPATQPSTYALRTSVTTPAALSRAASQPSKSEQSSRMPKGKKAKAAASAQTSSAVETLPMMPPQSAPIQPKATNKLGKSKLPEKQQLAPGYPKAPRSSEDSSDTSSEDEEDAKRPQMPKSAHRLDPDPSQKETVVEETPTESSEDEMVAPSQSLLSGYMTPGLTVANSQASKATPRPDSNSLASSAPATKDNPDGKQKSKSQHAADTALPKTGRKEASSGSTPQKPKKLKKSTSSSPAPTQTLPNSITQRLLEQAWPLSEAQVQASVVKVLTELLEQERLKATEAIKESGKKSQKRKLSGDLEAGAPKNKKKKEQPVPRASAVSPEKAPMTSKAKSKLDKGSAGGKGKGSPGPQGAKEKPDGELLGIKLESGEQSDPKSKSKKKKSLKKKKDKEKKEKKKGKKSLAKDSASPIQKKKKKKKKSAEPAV
Description: co-IP; HeLa cells transfected, synchronized by thymidine block, released 5 h, nocodazole (50 ng/ml) 14 h to obtain mitotic cells; lysis in 50 mM Tris-HCl pH 7.5, 150 mM NaCl, 1% NP-40, 5 mM EDTA; anti-FLAG agarose beads at 4°C overnight; elution with FLAG peptide; western blot with anti-HA, anti-PLK1 and anti-FLAG. (A western blot detects proteins with antibodies after separation by electrophoresis.)

As for “HA-tagged C-terminal half of Plk1 (mouse) (domain or fragment)”, the binding entry is on record as “binds”.
